The exact form of at least one protein or probe is not confirmed. For some assays here: Weaker means in comparison with the reference protein, sequence or condition of that experiment. For some assays here: At least one verdict rests on a figure or table, not on a statement of the authors.
Columns and labels:
[1] = target: alpha-synuclein aggregates in human serum (Homo sapiens) (UniProt P37840); experiment: single-molecule pull-down (APSiMPull), antibody 211 detection; conditions: human serum, 90 min, mean spots per FoV 200 +/- 100 (PD), 120 +/- 60 (control); PBS-T (0.05% Tween 20, from potassium-rich Rockland MB-075-1000); 10 nM biotinylated aptamer on NeutrAvidin/PEG coverslip; native protein; label: biotin (capture); folded or branched DNA
[2] = target: alpha-synuclein aggregates (sonicated, in vitro) (UniProt P37840); experiment: as above; conditions: PBS-T (0.05% Tween 20, from potassium-rich Rockland MB-075-1000), 10 nM biotinylated aptamer on NeutrAvidin/PEG coverslip, recombinant protein, folded or branched DNA
[3] = target: amyloid-beta 1-40 aggregates (sonicated, in vitro) (UniProt P05067); experiment: single-molecule pull-down (APSiMPull), antibody 6E10 detection; conditions: PBS-T (0.05% Tween 20, from potassium-rich Rockland MB-075-1000), 10 nM biotinylated aptamer on NeutrAvidin/PEG coverslip, commercial protein, residues 672-711, folded or branched DNA
[4] = target: amyloid-beta aggregates in human serum (Homo sapiens) (UniProt P05067); experiment: as above; conditions: human serum, 90 min, mean spots per FoV 140 +/- 120 (PD), 150 +/- 100 (control); PBS-T (0.05% Tween 20, from potassium-rich Rockland MB-075-1000); 10 nM biotinylated aptamer on NeutrAvidin/PEG coverslip; native protein; label: biotin (capture); folded or branched DNA
[5] = target: alpha-synuclein aggregates in human serum (Homo sapiens) (UniProt P37840); experiment: single-molecule pull-down (APSiMPull); conditions: only the correct capture aptamer gives a strong signal, PBS-T (0.05% Tween 20, from potassium-rich Rockland MB-075-1000), 10 nM biotinylated aptamer on NeutrAvidin/PEG coverslip, native protein, label: biotin, folded or branched DNA
[6] = target: amyloid-beta aggregates in human serum (Homo sapiens) (UniProt P05067); experiment: single-molecule pull-down (APSiMPull); conditions: only the correct capture aptamer gives a strong signal, PBS-T (0.05% Tween 20, from potassium-rich Rockland MB-075-1000), 10 nM biotinylated aptamer on NeutrAvidin/PEG coverslip, native protein, label: biotin, folded or branched DNA

## GCCTGTGGTGTTGGGGCGGGTGCGT [T-SO508 aptamer]
[1]
  binding result: binds
[2]; sonicated aggregates, 30 min, concentration-dependent until saturation, prefers small aggregates over mature fibrils, label: biotin (capture)
  binding result: binds
[3]; sonicated aggregates, 30 min, concentration-dependent until saturation, label: biotin (capture)
  binding result: binds
[4]
  binding result: binds

## GGGTTAGGGTTAGGGTTAGGGTTT [control aptamer (G-quadruplex)]
[5]
  binding result: binds more weakly
[6]
  binding result: binds more weakly
[2]; 500 nM aggregates, much less signal than T-SO508, label: biotin
  binding result: binds more weakly
[3]; 125 nM aggregates, much less signal than T-SO508, label: biotin
  binding result: binds more weakly

Source: article PMC10585954
